From article PMC3365098
Results are given in words; binding and its absence hold for the method and conditions named. Binding seen in cells or lysates may run through a third protein. Some binding calls cover weakened binding; strength is not graded here.

Amino acid sequences for entries named in this document (tags omitted).
UniProt Q8K4E0: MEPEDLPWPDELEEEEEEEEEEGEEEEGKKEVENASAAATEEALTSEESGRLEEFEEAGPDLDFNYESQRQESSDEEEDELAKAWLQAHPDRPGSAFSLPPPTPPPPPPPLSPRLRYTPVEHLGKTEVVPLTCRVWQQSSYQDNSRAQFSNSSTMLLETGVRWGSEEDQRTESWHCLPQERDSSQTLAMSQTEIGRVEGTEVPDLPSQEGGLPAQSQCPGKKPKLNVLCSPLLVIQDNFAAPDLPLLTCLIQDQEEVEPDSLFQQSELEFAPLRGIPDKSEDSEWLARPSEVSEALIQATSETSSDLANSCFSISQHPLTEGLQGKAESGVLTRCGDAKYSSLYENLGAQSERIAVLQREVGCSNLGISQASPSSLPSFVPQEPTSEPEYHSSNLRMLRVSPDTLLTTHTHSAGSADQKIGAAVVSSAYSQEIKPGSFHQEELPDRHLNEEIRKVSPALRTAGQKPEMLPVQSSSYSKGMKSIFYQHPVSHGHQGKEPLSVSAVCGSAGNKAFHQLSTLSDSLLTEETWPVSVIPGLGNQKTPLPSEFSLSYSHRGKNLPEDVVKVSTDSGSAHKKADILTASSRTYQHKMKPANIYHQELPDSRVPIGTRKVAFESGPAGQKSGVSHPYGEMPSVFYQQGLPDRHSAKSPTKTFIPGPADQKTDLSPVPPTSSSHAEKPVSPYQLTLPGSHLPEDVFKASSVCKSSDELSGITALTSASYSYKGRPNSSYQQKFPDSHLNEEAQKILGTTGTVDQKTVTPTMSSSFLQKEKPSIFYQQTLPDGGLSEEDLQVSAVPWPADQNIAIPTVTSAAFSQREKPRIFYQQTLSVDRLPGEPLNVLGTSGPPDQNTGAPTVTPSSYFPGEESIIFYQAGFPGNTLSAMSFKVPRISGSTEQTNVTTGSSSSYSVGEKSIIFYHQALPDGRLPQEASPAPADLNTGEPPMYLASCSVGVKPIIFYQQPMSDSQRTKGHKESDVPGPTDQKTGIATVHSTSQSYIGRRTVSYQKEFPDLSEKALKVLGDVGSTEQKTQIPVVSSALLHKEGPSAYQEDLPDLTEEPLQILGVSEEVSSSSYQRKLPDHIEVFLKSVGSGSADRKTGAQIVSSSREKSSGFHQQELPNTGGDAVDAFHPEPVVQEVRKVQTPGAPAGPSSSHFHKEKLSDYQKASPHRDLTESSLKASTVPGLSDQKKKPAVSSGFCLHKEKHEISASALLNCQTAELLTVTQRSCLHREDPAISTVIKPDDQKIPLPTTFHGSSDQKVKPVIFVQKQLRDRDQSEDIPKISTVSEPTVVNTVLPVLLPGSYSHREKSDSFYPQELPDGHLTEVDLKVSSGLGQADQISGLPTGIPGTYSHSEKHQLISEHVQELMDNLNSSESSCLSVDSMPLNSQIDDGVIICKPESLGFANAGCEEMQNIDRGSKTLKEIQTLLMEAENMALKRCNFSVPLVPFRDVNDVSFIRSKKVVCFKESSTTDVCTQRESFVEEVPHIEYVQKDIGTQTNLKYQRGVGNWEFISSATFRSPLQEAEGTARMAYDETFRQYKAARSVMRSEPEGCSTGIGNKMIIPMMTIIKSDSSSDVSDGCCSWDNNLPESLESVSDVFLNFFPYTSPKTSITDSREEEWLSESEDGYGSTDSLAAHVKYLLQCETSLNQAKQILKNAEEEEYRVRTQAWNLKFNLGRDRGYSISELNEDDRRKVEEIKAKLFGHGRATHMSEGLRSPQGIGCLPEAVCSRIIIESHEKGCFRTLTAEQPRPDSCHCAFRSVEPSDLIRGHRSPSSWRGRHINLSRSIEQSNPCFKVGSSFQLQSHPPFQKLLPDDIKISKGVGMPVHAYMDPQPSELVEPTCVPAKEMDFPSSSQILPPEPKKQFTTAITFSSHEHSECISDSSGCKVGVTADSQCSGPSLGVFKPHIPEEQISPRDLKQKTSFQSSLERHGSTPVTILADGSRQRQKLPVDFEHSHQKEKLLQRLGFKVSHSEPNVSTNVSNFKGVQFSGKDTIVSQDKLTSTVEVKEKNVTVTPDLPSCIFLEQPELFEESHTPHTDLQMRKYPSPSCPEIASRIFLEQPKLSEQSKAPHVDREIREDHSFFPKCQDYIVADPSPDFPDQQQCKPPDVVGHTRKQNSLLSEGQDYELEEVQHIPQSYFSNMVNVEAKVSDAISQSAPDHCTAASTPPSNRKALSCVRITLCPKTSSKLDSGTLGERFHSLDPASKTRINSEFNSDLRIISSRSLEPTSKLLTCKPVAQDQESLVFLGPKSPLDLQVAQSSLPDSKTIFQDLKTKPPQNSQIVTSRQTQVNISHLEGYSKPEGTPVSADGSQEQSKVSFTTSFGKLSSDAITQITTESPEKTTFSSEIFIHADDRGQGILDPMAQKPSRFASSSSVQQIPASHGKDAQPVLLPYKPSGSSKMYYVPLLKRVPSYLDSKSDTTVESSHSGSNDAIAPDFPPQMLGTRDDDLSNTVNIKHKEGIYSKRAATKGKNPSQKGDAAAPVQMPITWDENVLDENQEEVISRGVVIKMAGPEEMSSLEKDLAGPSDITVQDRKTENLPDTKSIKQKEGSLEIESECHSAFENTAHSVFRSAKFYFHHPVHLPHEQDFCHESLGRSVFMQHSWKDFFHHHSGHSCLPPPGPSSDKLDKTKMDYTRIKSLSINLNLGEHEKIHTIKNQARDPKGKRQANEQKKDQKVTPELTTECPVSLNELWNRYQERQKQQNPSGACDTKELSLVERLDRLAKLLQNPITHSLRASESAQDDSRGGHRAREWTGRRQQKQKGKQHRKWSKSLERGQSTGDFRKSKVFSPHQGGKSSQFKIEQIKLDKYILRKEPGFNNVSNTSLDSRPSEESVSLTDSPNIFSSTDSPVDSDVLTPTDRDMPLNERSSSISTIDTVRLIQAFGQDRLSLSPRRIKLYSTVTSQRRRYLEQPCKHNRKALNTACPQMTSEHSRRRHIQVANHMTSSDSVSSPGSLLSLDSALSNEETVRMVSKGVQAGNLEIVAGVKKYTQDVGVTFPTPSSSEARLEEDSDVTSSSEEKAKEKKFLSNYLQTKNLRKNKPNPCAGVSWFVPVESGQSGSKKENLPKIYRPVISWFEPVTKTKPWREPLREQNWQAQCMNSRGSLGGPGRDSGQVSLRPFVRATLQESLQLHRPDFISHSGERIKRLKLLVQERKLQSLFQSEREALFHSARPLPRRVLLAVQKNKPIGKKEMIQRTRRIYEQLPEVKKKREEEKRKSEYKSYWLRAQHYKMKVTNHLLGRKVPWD
UniProt P57780: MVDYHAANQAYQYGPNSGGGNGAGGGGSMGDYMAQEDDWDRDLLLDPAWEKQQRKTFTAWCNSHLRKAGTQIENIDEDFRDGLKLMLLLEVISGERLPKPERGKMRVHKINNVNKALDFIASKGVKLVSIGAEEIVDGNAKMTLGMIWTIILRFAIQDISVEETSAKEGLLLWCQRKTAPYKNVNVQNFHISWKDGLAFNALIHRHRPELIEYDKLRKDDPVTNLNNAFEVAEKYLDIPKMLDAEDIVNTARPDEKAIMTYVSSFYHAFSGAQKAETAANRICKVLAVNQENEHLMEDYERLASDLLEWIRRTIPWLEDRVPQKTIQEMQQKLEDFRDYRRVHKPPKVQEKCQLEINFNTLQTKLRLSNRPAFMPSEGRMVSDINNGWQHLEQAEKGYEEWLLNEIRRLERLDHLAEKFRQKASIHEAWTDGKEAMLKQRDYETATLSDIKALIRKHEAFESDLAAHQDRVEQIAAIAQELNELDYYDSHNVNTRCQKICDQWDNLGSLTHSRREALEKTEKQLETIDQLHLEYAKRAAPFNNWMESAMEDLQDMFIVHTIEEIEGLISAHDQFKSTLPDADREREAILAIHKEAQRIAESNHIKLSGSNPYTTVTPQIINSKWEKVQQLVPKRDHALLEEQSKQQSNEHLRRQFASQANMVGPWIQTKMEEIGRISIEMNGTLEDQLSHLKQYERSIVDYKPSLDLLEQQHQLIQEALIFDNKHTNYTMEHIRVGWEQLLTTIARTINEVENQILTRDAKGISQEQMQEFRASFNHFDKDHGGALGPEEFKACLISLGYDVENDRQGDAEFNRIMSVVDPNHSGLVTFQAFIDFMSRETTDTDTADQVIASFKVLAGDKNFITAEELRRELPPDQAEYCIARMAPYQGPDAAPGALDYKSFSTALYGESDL

Biological target: ALMS1, endogenous in mouse kidney (mouse (endogenous in C57BL/6Ei kidney)) (UniProt Q8K4E0)
Experiment: co-IP; C57BL/6Ei mouse kidney lysate (500 µg) incubated overnight at 4°C with C-terminal ALMS1 antibody or IgG, Protein A sepharose, blot with anti-ACTN4

binding: binds
Substance: α-actinin 4, endogenous in mouse kidney (from UniProt P57780 1-912)
